In publication PMC11773481:
No constants are given. Whether binding was seen depends on the method and setting. Binding seen in cells or lysates may run through a third protein. Some results given as binding are weak or reduced against the parent protein; the word gives no strength.

Protein sequences, listed by entry. Tags and fused reporters are not part of them.
UniProt Q14145: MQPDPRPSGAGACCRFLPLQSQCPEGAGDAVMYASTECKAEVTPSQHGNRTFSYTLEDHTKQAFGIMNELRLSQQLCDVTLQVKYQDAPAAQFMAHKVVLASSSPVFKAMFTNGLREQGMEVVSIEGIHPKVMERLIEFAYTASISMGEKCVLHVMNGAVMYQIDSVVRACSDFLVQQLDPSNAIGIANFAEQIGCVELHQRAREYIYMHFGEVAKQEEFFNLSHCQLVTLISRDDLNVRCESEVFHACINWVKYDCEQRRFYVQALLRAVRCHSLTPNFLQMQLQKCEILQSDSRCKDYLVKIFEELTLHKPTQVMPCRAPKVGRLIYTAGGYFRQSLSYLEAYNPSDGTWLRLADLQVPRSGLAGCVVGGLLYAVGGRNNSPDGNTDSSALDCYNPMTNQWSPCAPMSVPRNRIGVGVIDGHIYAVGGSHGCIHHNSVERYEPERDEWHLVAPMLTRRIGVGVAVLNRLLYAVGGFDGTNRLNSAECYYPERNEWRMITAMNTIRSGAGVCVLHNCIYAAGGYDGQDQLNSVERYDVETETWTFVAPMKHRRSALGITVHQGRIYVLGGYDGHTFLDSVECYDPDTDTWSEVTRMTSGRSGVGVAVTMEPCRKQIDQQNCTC

Molecular target: FLAG-tagged full-length (FL) KEAP1 (UniProt Q14145)
Experiment: co-IP; proteins transiently expressed in HEK 293T cells (with endogenous DPP8/9), anti-FLAG agarose IP, immunoblot; in Figure 6C cells treated with H2O2 (100, 250, 500 μΜ) for 3 h

binding: binds
B1: endogenous DPP3 (enzyme, UniProt Q9NY33 1-737)
chain: MADTQYILPNDIGVSSLDCREAFRLLSPTERLYAYHLSRAAWYGGLAVLLQTSPEAPYIYALLSRLFRAQDPDQLRQHALAEGLTEEEYQAFLVYAAGVYSNMGNYKSFGDTKFVPNLPKEKLERVILGSEAAQQHPEEVRGLWQTCGELMFSLEPRLRHLGLGKEGITTYFSGNCTMEDAKLAQDFLDSQNLSAYNTRLFKEVDGEGKPYYEVRLASVLGSEPSLDSEVTSKLKSYEFRGSPFQVTRGDYAPILQKVVEQLEKAKAYAANSHQGQMLAQYIESFTQGSIEAHKRGSRFWIQDKGPIVESYIGFIESYRDPFGSRGEFEGFVAVVNKAMSAKFERLVASAEQLLKELPWPPTFEKDKFLTPDFTSLDVLTFAGSGIPAGINIPNYDDLRQTEGFKNVSLGNVLAVAYATQREKLTFLEEDDKDLYILWKGPSFDVQVGLHELLGHGSGKLFVQDEKGAFNFDQETVINPETGEQIQSWYRSGETWDSKFSTIASSYEECRAESVGLYLCLHPQVLEIFGFEGADAEDVIYVNWLNMVRAGLLALEFYTPEAFNWRQAHMQARFVILRVLLEAGEGLVTITPTTGSDGRPDARVRLDRSKIRSVGKPALERFLRRLQVLKSTGDVAGGRALYEGYATVTDAPPECFLTLRDTVLLRKESRKLIVQPNTRLEGSDVQLLEYEASAAGLIRSFSERFPEDGPELEEILTQLATADARFWKGPSEAPSGQA
